{"sequences": {"note": "Sequences of proteins named here, by UniProt entry; tags and fusion partners are left off. A change or cut given only in a name is not applied to a line headed by its entry.", "UniProt Q92585": "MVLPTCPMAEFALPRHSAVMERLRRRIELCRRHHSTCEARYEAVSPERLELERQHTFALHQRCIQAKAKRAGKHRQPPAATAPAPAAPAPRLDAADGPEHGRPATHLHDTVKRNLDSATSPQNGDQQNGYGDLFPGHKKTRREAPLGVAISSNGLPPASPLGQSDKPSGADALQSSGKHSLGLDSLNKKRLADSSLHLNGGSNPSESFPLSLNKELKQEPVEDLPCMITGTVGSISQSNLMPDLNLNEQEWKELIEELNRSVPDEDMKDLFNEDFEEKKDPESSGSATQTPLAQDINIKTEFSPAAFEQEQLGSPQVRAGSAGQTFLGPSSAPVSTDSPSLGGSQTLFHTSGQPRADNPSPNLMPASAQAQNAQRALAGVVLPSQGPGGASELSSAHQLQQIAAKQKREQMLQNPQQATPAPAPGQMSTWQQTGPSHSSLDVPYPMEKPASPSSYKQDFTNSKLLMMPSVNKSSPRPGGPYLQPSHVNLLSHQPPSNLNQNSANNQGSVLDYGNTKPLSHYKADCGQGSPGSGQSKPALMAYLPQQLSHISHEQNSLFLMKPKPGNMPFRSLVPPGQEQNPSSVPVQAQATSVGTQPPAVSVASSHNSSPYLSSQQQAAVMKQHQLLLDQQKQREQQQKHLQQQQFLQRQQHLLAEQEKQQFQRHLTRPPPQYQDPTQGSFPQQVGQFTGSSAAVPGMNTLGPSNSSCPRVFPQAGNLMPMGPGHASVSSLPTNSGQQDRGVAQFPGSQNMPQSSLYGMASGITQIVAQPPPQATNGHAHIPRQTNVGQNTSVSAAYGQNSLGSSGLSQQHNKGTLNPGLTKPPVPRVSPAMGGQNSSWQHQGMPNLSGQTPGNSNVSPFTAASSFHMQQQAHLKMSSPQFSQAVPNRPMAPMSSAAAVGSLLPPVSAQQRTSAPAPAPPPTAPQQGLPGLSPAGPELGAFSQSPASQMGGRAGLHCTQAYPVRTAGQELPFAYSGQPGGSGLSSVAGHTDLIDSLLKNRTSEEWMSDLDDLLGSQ", "UniProt Q9C0E8": "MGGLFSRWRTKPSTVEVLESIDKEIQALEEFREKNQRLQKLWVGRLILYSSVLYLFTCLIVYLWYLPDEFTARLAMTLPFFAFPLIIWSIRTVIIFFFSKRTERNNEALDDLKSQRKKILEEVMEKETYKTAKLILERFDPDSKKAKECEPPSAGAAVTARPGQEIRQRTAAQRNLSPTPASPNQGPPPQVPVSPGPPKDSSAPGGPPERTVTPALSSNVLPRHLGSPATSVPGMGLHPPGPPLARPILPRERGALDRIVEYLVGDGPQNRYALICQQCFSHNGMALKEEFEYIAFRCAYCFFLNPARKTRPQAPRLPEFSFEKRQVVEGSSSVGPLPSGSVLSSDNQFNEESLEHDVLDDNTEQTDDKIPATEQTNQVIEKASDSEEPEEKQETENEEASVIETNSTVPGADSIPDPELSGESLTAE", "UniProt Q9Y6D9": "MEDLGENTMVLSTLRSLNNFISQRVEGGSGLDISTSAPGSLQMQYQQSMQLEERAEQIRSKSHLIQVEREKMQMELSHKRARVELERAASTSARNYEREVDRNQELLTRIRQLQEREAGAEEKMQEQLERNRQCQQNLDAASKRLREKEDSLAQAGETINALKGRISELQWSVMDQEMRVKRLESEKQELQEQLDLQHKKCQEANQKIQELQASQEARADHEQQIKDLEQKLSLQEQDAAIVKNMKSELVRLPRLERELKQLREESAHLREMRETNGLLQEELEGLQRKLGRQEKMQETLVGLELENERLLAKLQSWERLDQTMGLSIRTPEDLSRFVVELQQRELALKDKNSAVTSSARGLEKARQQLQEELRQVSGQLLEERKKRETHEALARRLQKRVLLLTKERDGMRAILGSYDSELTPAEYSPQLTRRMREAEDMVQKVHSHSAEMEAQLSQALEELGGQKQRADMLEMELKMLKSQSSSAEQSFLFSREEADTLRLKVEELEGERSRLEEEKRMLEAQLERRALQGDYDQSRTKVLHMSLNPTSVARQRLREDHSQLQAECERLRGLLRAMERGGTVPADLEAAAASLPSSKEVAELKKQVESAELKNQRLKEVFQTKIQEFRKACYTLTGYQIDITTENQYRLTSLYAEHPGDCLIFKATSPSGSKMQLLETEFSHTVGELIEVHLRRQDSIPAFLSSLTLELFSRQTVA", "UniProt Q9ULE6": "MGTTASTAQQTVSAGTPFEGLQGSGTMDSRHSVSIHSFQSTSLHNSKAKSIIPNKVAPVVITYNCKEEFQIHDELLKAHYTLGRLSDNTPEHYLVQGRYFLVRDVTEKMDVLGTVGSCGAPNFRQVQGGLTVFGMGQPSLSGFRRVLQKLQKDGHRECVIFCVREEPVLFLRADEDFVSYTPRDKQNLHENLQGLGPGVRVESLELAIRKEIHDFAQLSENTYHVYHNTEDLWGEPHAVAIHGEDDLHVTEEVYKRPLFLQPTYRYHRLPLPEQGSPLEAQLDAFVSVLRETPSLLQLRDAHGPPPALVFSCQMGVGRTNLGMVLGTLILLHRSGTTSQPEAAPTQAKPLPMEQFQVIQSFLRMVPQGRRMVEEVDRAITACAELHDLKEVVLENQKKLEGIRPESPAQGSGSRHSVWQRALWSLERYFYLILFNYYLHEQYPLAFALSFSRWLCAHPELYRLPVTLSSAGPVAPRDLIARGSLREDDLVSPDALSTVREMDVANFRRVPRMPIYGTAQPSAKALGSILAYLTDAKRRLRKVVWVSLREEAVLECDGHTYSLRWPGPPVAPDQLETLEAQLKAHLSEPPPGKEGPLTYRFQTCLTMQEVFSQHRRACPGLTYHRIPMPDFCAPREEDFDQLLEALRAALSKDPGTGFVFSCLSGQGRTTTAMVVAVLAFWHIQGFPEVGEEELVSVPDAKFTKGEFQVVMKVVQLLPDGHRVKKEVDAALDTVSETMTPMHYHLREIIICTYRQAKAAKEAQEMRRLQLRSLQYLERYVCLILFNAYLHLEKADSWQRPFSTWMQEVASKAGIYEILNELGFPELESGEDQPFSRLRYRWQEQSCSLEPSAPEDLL", "UniProt Q12907": "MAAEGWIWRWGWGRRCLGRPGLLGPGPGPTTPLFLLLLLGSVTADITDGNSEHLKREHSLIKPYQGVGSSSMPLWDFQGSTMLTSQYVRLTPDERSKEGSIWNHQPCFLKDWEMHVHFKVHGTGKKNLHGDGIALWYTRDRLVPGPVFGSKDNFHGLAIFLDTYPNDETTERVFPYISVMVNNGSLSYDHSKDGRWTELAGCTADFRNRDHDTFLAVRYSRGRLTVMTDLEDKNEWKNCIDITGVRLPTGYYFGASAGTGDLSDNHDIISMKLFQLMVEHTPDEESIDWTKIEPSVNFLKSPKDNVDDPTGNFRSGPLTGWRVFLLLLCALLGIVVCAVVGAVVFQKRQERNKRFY", "UniProt P52732": "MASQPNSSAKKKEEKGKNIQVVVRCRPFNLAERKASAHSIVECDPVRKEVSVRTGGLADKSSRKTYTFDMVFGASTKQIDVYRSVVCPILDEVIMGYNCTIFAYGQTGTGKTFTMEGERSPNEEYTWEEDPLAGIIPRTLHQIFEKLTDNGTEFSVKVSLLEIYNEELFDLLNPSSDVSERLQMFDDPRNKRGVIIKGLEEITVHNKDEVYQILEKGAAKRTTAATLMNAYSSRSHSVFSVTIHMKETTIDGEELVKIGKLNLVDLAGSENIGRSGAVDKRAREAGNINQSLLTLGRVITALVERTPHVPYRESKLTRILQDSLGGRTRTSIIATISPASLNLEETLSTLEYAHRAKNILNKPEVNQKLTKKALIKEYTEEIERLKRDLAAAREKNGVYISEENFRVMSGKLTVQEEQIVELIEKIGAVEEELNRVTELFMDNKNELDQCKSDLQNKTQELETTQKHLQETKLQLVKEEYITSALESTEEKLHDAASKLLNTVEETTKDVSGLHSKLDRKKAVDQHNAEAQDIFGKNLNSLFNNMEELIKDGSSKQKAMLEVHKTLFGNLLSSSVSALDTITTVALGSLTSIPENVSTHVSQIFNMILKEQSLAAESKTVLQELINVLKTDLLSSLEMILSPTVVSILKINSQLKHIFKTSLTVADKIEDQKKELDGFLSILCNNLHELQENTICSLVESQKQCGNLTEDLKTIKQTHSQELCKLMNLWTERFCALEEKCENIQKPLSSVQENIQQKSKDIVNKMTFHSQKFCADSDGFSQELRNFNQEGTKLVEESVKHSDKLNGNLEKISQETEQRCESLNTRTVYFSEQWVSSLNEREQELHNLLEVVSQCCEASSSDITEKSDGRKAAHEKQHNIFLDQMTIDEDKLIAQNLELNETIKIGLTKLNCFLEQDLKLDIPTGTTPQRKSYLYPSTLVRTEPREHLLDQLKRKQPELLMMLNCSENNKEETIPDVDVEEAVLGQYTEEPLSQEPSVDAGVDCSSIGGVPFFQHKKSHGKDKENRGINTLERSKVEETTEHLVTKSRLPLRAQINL", "UniProt O75427": "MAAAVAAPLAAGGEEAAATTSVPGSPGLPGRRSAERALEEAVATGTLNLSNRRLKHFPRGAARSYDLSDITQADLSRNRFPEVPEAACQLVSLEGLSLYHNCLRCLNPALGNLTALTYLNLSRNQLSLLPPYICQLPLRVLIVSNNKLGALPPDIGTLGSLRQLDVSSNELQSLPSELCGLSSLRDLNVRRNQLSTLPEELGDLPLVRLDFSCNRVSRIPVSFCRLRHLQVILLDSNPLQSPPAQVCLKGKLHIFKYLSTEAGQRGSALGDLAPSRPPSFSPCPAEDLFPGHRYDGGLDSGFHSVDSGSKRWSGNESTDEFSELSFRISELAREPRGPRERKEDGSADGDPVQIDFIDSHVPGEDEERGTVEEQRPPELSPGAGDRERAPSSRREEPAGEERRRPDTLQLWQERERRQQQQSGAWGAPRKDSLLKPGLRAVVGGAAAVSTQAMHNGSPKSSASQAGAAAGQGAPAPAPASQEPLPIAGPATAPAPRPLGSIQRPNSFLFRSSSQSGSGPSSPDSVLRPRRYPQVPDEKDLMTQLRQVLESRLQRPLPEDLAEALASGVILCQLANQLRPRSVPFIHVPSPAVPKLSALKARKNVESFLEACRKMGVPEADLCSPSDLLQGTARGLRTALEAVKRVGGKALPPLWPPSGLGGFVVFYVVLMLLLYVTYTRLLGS", "UniProt Q9BRA0": "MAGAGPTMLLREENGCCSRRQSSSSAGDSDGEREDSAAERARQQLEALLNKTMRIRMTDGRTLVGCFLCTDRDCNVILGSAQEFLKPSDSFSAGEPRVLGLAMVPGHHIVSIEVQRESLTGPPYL", "UniProt Q9UIQ6, whole entry": "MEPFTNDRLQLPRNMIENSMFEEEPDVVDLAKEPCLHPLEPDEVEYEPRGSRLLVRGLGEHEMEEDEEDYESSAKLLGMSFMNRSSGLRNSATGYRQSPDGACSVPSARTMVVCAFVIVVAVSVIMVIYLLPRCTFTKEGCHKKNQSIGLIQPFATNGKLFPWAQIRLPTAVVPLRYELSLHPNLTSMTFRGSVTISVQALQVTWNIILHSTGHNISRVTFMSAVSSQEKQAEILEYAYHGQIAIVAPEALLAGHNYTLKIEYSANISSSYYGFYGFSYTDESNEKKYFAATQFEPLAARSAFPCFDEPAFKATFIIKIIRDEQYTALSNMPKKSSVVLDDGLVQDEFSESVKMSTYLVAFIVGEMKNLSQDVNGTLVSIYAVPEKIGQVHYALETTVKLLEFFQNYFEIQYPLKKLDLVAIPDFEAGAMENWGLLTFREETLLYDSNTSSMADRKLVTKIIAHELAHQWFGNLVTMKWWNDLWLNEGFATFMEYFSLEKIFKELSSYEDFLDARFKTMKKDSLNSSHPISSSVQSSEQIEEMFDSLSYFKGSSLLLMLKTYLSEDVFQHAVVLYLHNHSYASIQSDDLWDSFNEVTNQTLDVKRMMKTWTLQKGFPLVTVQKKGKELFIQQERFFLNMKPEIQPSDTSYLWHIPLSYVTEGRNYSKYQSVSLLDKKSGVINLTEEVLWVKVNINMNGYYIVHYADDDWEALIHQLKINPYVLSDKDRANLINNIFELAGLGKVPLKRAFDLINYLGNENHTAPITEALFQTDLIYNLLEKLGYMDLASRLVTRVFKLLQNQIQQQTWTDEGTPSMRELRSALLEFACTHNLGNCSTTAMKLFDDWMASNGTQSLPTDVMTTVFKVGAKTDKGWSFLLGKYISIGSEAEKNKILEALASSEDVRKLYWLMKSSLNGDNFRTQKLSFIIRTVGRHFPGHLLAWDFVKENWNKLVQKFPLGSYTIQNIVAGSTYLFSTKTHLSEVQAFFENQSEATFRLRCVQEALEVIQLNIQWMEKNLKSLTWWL", "UniProt Q96AG4": "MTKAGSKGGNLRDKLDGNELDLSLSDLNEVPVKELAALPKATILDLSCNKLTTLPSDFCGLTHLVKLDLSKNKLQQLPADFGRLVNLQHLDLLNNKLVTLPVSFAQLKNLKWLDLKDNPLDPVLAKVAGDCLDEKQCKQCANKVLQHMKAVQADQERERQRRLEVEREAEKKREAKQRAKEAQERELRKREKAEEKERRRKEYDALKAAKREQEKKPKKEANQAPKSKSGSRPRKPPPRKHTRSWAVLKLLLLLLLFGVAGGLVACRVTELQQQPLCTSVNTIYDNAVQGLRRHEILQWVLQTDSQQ"}, "source": "the supplement of paper PMC7666118", "note": "The other results are listed elsewhere or left out."}
{"compound": "COc1ccc(Cn2ccc3ccc(C(=O)NO)cc32)cc1", "test": "dose-dependent thermal stabilisation call (2D-TPP, DLPTP, 10% FDR) (binary (1 = stabilised)); higher = stabilised by the compound", "conditions": "system: HL-60 intact cells; concentration range 0.04-10 µM"}
{"target": "MAML1 (UniProt Q92585)", "dose-dependent thermal stabilisation call": "inactive: 0"}
{"target": "KIAA1432 (UniProt Q4ADV7)", "dose-dependent thermal stabilisation call": "inactive: 0"}
{"target": "LRCH1 (UniProt Q9Y2L9)", "dose-dependent thermal stabilisation call": "inactive: 0"}
{"target": "M6PR (UniProt P20645)", "dose-dependent thermal stabilisation call": "inactive: 0"}
{"target": "LPCAT4 (UniProt Q643R3)", "dose-dependent thermal stabilisation call": "inactive: 0"}
{"target": "KIAA1715 (UniProt Q9C0E8)", "dose-dependent thermal stabilisation call": "inactive: 0"}
{"target": "MAD1L1 (UniProt Q9Y6D9)", "dose-dependent thermal stabilisation call": "inactive: 0"}
{"target": "LSM14A (UniProt Q8ND56)", "dose-dependent thermal stabilisation call": "inactive: 0"}
{"target": "MAN2A1 (UniProt Q16706)", "dose-dependent thermal stabilisation call": "inactive: 0"}
{"target": "KIF3A (UniProt Q9Y496)", "dose-dependent thermal stabilisation call": "inactive: 0"}
{"target": "KIAA1274 (UniProt Q9ULE6)", "dose-dependent thermal stabilisation call": "inactive: 0"}
{"target": "LMAN2 (UniProt Q12907)", "dose-dependent thermal stabilisation call": "inactive: 0"}
{"target": "KIF11 (UniProt P52732)", "dose-dependent thermal stabilisation call": "inactive: 0"}
{"target": "LRCH4 (UniProt O75427)", "dose-dependent thermal stabilisation call": "inactive: 0"}
{"target": "LOC153364", "dose-dependent thermal stabilisation call": "inactive: 0"}
{"target": "LMF2 (UniProt Q9BU23)", "dose-dependent thermal stabilisation call": "inactive: 0"}
{"target": "KIF13B (UniProt Q9NQT8)", "dose-dependent thermal stabilisation call": "inactive: 0"}
{"target": "LSM2 (UniProt Q9Y333)", "dose-dependent thermal stabilisation call": "inactive: 0"}
{"target": "KIAA1632 (UniProt Q9HCE0)", "dose-dependent thermal stabilisation call": "inactive: 0"}
{"target": "LPCAT2 (UniProt Q7L5N7)", "dose-dependent thermal stabilisation call": "inactive: 0"}
{"target": "KIAA1712 (UniProt Q9C0F1)", "dose-dependent thermal stabilisation call": "inactive: 0"}
{"target": "LOC100130932", "dose-dependent thermal stabilisation call": "inactive: 0"}
{"target": "LSMD1 (UniProt Q9BRA0)", "dose-dependent thermal stabilisation call": "inactive: 0"}
{"target": "LMTK2 (UniProt Q8IWU2)", "dose-dependent thermal stabilisation call": "inactive: 0"}
{"target": "LOC642393", "dose-dependent thermal stabilisation call": "inactive: 0"}
{"target": "LRFN4 (UniProt Q6PJG9)", "dose-dependent thermal stabilisation call": "inactive: 0"}
{"target": "LNPEP (UniProt Q9UIQ6)", "dose-dependent thermal stabilisation call": "inactive: 0"}
{"target": "LMAN2L (UniProt Q9H0V9)", "dose-dependent thermal stabilisation call": "inactive: 0"}
{"target": "LRPAP1 (UniProt P30533)", "dose-dependent thermal stabilisation call": "inactive: 0"}
{"target": "LIMD2 (UniProt Q9BT23)", "dose-dependent thermal stabilisation call": "inactive: 0"}
{"target": "LRRC59 (UniProt Q96AG4)", "dose-dependent thermal stabilisation call": "inactive: 0"}
{"target": "LMBRD2 (UniProt Q68DH5)", "dose-dependent thermal stabilisation call": "inactive: 0"}
{"target": "LOC100133930", "dose-dependent thermal stabilisation call": "inactive: 0"}
{"target": "LCP2 (UniProt Q13094)", "dose-dependent thermal stabilisation call": "inactive: 0"}
{"target": "LSM14B (UniProt Q9BX40)", "dose-dependent thermal stabilisation call": "inactive: 0"}
{"target": "LGALS9 (UniProt O00182)", "dose-dependent thermal stabilisation call": "inactive: 0"}
{"target": "LRRFIP1 (UniProt Q32MZ4)", "dose-dependent thermal stabilisation call": "inactive: 0"}
{"target": "LRCH3 (UniProt Q96II8)", "dose-dependent thermal stabilisation call": "inactive: 0"}
